Results as given in patent US20080219971A1.
Results are given in words; binding and its absence hold for the method and conditions named. Some results given as binding are weak or reduced against the parent protein; the word gives no strength. Sequences can lack the tags named with a protein.

Sequences of proteins named here, by UniProt entry; tags and fusion partners are left off. Residues count along the entry.
UniProt O43157, residues 20-2135: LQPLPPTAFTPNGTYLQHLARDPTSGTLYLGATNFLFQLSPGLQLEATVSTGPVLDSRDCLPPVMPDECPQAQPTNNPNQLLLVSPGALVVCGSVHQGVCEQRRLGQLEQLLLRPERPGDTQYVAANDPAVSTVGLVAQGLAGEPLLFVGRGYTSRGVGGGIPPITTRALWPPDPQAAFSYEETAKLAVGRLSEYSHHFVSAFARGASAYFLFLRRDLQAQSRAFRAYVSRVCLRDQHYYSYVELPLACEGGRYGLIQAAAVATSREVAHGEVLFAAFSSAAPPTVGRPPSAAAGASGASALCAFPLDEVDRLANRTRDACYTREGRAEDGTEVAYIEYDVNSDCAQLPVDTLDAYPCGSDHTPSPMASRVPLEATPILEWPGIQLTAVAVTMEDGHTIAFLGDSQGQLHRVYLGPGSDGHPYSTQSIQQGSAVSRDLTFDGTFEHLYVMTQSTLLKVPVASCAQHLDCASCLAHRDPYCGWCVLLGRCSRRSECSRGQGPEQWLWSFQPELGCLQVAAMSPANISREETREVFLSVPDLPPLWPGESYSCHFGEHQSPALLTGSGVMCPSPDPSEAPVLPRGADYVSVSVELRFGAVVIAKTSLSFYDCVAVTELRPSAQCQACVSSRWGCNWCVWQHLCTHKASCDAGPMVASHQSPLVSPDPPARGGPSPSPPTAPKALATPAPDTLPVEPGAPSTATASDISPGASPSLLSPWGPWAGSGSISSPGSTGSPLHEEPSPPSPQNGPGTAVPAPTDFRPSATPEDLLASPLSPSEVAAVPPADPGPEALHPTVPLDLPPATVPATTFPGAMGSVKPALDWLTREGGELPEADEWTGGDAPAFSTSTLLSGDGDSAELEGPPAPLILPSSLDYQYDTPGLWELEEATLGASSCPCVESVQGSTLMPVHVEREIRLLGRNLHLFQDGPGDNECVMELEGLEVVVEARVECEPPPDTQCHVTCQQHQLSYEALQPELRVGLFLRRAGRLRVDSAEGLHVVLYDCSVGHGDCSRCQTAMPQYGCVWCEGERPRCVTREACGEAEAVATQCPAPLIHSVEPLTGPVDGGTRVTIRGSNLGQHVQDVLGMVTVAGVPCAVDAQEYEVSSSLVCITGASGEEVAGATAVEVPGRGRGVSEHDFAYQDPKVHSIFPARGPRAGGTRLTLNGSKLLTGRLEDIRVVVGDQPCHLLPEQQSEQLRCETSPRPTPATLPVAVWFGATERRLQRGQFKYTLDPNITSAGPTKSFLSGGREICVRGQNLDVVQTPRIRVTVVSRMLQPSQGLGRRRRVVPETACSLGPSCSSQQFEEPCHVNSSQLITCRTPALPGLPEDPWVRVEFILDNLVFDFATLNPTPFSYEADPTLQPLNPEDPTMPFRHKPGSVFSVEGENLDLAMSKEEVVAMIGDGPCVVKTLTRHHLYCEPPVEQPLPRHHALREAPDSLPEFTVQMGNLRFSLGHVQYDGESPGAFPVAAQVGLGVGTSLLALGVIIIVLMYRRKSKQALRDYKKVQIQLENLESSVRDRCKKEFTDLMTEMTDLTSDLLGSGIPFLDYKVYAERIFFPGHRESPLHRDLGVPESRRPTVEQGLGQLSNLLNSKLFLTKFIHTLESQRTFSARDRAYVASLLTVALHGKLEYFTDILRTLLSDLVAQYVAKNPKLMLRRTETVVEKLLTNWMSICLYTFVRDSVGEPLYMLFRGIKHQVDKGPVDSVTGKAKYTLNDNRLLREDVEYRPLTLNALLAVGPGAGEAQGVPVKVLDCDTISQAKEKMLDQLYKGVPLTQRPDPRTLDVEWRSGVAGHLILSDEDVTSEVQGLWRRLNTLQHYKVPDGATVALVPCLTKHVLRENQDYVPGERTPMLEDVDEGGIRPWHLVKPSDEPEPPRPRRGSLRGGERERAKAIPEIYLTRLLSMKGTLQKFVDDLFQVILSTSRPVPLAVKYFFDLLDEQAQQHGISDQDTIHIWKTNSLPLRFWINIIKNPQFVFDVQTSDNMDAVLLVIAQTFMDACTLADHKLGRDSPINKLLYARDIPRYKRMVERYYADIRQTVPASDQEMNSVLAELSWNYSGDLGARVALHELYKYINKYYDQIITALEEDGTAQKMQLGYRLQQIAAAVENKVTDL

Target: Plexin B1 (UniProt O43157)
Experiment: flow cytometry on 293/Plexin B1 cells; bound His-tagged murine CD100 detected with rabbit anti-His and streptavidin-APC, FL4-H

B1: mouse CD100-His (ligand)
chain: FAPVPRLTWEHGEVGLVQFHKPGIFNYSALLMSEDKDTLYVGAREAVFAVNALNISEKQHEVYWKVSEDKKSKCAEKGKSKQTECLNYIRVLQPLSSTSLYVCGTNAFQPTCDHLNLTSFKFLGKSEDGKGRCPFDPAHSYTSVMVGGELYSGTSYNFLGSEPIISRNSSHSPLRTEYAIPWLNEPSFVFADVIQKSPDGPEGEDDKVYFFFTEVSVEYEFVFKLMIPRVARVCKGDQGGLRTLQKKWTSFLKARLICSKPDSGLVFNILQDVFVLRAPGLKEPVFYAVFTPQLNNVGLSAVCAYTLATVEAVFSRGKYMQSATVEQSHTKWVRYNGPVPTPRPGACIDSEARAANYTSSLNLPDKTLQFVKDHPLMDDSVTPIDNRPKLIKKDVNYTQIVVDRTQALDGTFYDVMFISTDRGALHKAVILTKEVHVIEETQLFRDSEPVLTLLLSSKKGRKFVYAGSNSGVVQAPLAFCEKHGSCEDCVLARDPYCAWSPAIKACVTLHQEEASSRGWIQDMSGDTSSCLDKSKESFNQHFFKHGGTAELKCFQKSNLARVVWKFQNGELKAASPKYGFVGRKHLLIFNLSDGDSGVYQCLSEERVRNKTVSQLLAKHVLEVKMVPRTPPSPTSEDAQTEGSKITSKMPVASTQGSSPPTPALWATSPRAATLPPKSSSGTSCEPKMVINTVPQLHSEKTVYLKSSDNRHHHHHH
binding: binds
